{"sequences": {"note": "Protein sequences, listed by entry. Tags and fused reporters are not part of them.", "UniProt P41376, whole entry": "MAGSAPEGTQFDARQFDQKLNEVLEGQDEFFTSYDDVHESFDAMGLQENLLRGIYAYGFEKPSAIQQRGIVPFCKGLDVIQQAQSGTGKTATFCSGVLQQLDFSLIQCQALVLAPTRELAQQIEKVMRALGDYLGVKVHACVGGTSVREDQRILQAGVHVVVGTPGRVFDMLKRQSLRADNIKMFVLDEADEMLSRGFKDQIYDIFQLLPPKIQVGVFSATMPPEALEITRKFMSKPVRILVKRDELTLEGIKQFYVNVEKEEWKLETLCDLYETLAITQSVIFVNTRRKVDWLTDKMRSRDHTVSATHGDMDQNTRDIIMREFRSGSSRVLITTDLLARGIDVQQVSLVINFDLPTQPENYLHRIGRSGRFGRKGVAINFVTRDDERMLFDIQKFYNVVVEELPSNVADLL"}, "source": "paper PMC9293640", "about": "“Insights into the structural dynamics and helicase-catalyzed unfolding of plant RNA G-quadruplexes”", "assay_in_all_cases": "MST", "key": {"[1]": {"molecular_target": "T1, RH3 (Arabidopsis thaliana) (UniProt Q8L7S8)", "T1 sequence (looked up)": "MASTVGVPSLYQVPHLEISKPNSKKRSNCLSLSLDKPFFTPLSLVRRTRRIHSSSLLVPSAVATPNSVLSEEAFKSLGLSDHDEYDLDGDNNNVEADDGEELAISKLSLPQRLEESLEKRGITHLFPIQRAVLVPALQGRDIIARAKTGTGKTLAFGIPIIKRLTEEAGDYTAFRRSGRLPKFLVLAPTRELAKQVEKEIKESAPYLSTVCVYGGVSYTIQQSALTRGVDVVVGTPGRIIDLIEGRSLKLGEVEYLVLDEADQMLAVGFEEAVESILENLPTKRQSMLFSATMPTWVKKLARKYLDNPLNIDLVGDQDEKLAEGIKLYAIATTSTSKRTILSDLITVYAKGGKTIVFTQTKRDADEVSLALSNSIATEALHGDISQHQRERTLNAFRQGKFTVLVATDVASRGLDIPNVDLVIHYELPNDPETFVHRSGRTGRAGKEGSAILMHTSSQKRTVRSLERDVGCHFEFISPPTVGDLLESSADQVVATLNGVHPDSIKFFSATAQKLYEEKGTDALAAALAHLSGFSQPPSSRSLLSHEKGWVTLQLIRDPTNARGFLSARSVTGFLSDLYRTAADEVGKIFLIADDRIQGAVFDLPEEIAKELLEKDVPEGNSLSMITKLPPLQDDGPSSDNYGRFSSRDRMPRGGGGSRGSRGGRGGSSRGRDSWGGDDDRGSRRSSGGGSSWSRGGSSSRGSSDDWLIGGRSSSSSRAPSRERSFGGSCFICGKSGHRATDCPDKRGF", "conditions": "EC50 only in figure; MST: 20 nM FAM-RNA; recombinant protein; residues 1-748; protein details: N-terminal 6xHis-SUMO (retained); label: 5'-FAM"}, "[2]": {"molecular_target": "T2, RH53 (Arabidopsis thaliana) (UniProt Q9LUW5)", "T2 sequence (looked up)": "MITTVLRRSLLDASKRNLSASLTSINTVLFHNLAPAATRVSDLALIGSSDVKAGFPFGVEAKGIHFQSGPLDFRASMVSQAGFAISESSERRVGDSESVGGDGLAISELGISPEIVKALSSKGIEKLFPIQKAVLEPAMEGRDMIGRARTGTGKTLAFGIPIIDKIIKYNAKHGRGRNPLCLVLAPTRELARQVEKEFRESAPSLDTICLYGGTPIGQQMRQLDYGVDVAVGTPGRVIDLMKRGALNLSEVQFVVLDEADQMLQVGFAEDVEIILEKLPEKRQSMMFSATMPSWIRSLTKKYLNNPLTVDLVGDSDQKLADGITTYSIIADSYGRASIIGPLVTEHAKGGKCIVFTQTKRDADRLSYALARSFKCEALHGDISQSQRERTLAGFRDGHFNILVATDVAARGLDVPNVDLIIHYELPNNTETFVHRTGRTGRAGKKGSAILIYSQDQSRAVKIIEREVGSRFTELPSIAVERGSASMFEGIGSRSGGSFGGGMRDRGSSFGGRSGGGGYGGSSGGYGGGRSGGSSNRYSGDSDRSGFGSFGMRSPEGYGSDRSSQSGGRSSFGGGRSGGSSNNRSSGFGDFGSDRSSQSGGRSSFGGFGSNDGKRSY", "conditions": "EC50 only in figure; MST: 20 nM FAM-RNA; recombinant protein; residues 1-616; protein details: N-terminal 6xHis-SUMO (retained); label: 5'-FAM"}, "[3]": {"molecular_target": "T3, DExH15 (Arabidopsis thaliana) (UniProt B9DFG3)", "T3 sequence (looked up)": "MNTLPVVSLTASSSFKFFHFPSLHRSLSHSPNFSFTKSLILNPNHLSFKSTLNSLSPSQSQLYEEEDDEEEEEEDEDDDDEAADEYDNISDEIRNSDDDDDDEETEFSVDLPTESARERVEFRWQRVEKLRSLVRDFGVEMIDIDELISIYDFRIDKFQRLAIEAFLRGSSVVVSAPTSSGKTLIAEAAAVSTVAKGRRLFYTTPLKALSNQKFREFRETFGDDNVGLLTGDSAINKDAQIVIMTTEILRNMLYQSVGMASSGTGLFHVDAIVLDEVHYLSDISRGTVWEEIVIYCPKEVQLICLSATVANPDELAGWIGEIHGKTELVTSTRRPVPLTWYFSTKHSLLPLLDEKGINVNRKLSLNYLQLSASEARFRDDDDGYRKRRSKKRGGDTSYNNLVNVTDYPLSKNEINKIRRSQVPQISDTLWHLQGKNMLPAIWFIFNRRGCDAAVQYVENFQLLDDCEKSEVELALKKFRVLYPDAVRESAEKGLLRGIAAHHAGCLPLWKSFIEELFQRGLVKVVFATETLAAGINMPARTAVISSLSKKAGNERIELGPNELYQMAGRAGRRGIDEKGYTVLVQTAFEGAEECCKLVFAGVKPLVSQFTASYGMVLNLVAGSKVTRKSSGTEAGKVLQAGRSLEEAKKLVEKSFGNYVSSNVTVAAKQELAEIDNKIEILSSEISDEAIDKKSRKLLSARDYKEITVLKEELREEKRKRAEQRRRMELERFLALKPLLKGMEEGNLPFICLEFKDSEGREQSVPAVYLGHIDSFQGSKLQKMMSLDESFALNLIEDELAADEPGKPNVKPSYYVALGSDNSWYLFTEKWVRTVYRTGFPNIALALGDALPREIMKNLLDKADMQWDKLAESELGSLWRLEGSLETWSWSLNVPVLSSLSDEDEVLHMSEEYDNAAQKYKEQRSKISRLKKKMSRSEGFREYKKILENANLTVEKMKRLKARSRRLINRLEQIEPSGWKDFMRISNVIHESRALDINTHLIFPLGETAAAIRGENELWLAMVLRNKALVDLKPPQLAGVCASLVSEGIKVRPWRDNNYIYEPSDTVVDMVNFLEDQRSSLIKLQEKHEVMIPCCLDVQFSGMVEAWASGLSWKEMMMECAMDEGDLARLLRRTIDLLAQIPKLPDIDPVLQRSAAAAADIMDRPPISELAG", "conditions": "3' tail rG4 preferred, EC50 only in figure; MST: 20 nM FAM-RNA; recombinant protein; residues 1-1171; protein details: 6xHis-SUMO removed; label: 5'-FAM"}, "[4]": {"molecular_target": "eIF4A (eIF4A1) (Arabidopsis thaliana) (UniProt P41376)", "conditions": "EC50 only in figure; MST: 20 nM FAM-RNA; recombinant protein; residues 1-412; protein details: 6xHis-SUMO removed; label: 5'-FAM"}}, "note": "For at least one entry, the source does not settle the construct or the ends of the probe. For some of these results: The comparison behind a weaker result is the experiment's own reference, which may not be listed here. At least one verdict was read from the data and is not stated in words by the source. For some of these results: Protein sequences can lack the tags named with them."}
{"sequence": "UUUUUUUUUUUUUUUGGGAGGGAAGGGGAAGGGG [SG4 (5' tail rG4)]", "values": [{"measurement": "binding result", "setting": "[1]", "value": "binds"}, {"measurement": "binding result", "setting": "[2]", "value": "binds"}, {"measurement": "binding result", "setting": "[3]", "value": "binds more weakly"}, {"measurement": "binding result", "setting": "[4]", "value": "binds"}]}
